# According to PMC10117899:
# Chains of the proteins cited; added tags and fusions are not shown.
# UniProt Q4JK59: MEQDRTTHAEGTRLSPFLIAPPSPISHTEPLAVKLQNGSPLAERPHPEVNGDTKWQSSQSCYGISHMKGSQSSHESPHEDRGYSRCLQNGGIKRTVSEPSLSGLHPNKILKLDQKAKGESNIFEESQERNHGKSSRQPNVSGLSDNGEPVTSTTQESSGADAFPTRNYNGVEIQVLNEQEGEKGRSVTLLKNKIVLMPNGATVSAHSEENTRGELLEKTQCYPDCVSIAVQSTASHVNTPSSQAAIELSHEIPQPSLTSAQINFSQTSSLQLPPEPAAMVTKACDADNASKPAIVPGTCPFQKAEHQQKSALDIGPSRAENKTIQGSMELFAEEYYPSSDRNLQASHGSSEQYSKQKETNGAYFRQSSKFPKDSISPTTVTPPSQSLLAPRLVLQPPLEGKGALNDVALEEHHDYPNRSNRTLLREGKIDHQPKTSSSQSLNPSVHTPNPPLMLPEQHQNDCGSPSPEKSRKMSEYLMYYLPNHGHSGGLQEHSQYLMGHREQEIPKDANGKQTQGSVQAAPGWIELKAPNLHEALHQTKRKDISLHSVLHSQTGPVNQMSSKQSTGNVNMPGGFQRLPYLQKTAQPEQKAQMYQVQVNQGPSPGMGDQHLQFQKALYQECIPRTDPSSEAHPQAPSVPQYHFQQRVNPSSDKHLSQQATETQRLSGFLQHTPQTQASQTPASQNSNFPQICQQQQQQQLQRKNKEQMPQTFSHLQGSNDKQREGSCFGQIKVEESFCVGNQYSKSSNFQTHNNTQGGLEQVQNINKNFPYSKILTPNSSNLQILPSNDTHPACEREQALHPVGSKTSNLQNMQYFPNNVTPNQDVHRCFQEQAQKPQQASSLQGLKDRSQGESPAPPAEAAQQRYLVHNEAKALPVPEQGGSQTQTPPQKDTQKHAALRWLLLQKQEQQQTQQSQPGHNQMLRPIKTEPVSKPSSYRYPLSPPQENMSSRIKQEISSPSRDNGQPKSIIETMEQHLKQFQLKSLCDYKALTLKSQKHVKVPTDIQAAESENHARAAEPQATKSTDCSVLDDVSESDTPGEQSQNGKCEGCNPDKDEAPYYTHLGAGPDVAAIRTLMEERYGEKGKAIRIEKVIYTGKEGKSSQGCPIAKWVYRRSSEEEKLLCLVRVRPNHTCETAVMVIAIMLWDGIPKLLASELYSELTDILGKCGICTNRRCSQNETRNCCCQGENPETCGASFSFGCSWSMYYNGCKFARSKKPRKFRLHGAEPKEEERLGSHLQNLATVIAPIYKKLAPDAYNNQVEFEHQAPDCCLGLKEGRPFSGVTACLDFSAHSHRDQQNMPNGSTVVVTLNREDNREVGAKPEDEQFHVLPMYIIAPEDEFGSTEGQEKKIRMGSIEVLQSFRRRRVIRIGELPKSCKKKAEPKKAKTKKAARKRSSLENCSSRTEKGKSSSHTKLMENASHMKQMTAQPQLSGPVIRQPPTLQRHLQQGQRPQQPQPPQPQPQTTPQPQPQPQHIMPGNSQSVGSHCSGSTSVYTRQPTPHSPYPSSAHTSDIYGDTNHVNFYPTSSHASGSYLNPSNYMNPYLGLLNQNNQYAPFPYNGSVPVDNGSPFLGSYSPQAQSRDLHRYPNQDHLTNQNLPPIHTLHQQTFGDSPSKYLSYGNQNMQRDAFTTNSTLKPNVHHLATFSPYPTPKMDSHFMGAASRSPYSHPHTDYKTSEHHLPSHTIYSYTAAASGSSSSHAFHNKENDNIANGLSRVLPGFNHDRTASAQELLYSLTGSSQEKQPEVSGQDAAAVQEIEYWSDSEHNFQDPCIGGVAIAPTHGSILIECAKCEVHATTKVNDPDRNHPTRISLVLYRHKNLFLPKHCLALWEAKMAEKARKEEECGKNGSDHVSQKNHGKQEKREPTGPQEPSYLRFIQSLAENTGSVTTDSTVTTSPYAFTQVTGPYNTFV
# UniProt Q9EPU0: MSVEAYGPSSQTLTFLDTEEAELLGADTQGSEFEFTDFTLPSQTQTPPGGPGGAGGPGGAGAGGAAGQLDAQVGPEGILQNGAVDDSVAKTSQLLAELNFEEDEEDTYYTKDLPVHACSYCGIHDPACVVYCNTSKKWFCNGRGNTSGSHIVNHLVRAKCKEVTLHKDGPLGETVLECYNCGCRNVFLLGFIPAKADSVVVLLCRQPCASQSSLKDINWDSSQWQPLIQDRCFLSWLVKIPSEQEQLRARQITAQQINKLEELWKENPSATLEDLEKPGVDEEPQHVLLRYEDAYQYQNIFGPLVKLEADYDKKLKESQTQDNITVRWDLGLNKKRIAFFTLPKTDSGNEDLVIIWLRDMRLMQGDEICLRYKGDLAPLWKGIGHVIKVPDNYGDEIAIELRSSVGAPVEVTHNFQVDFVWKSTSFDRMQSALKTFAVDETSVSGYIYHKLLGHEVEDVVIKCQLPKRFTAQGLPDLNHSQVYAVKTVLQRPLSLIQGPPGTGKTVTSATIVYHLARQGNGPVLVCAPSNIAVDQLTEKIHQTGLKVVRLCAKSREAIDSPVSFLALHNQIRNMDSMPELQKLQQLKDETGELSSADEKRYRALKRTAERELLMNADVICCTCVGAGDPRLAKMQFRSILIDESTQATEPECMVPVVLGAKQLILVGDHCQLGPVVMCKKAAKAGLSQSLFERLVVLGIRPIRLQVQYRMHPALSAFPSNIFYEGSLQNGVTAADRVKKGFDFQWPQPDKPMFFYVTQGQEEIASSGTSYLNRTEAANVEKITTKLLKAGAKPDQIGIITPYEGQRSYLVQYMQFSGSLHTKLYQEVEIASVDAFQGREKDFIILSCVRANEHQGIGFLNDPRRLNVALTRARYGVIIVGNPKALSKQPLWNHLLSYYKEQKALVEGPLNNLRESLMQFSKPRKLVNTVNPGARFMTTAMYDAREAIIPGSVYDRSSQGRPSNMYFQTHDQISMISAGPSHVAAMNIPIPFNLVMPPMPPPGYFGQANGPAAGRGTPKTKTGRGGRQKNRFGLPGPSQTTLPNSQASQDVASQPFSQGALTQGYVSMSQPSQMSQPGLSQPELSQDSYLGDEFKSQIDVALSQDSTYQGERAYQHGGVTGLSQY
# These are yes or no findings as the source states them, for the method shown. Binding seen in cells or lysates may run through a third protein. Some results given as binding are weak or reduced against the parent protein; the word gives no strength.
# Assays:
# [1] = target: endogenous Tet2 (mouse (endogenous in N2a)) (UniProt Q4JK59); assay: co-IP; endogenous IP: N2a cells lysed in RIPA buffer (50 mM Tris pH 8.0, 0.1% SDS, 150 mM NaCl, 1 mM EDTA, 1 mM EGTA, 0.5% deoxycholate, 1% Triton X-100); anti-Tet2 or IgG antibody, agarose beads, 4°C overnight; blot with anti-Upf1
# [2] = target: Flag-Tet2 (mouse) (UniProt Q4JK59); assay: co-IP; exogenous IP: HEK293T co-transfected with HA-Upf1 and Flag-Tet2 (or vector) for 48 h; lysis buffer 150 mM NaCl, 25 mM tris-HCl pH 7.4, 10% glycerol, 0.5% Triton X-100, 2 mM MgCl2; Flag beads, 4°C overnight; blot with anti-HA
binding [1],binding [2],Substance
binds,,endogenous Upf1 (from UniProt Q9EPU0 1-1124) (enzyme)
,binds,HA-Upf1 (from UniProt Q9EPU0 1-1124) (enzyme)
